Results are given in words; binding and its absence hold for the method and conditions named. Some binding calls cover weakened binding; strength is not graded here.
Molecular target: T1, purified LRIG1 (Example 6) (Homo sapiens (Human)) (UniProt Q96JA1)
T1 sequence: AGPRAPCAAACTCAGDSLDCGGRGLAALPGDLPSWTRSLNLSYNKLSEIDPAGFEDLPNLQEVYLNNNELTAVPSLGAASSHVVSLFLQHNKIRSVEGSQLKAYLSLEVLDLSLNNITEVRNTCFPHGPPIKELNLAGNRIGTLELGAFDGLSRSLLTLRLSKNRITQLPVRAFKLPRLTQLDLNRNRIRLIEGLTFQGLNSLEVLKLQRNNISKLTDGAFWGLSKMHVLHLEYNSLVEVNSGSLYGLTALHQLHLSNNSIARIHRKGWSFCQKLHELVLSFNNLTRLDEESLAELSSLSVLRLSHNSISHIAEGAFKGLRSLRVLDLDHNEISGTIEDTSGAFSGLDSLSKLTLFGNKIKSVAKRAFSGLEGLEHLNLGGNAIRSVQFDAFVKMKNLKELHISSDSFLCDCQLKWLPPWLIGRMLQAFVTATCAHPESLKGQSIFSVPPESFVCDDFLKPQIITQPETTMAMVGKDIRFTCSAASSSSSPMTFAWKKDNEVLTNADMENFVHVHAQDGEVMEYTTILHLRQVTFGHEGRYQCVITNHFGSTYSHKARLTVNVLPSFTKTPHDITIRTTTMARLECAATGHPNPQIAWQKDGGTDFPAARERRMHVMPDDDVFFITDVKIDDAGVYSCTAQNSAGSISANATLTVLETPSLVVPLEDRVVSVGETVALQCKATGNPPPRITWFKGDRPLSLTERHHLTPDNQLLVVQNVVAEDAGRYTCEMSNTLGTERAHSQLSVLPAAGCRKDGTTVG
Test: chemical cross-linking (K200 kit) and High-Mass MALDI MS of 3.2 uM LRIG1 mixed with 0.6 uM VISTA

The chains behind the UniProt entries cited, without tags or fusion partners. Where a name states a change or a piece, a line headed by the entry shows the natural chain unless it says otherwise.
UniProt Q9H7M9: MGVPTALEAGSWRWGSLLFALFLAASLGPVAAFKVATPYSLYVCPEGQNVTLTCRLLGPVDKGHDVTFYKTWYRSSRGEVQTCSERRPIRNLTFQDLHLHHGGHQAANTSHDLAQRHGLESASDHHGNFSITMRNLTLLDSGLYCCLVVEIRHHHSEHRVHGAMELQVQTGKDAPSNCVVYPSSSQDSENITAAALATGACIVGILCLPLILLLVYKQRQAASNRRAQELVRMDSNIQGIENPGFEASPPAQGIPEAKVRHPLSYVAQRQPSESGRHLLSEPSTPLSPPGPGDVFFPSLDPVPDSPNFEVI

binding: binds
Substance: purified VISTA (Example 6) (from UniProt Q9H7M9 33-194) (receptor)
